Reference: article PMC11952966 (2025)

Test system: HM10.2M1 (DNA, aptamer) GGGACGACAGGGATTCGGTTCGTGTCTAACAGTGCCTCGTACGTCGTCCC
Assay: ITC

With `CN1CC[C@]23c4c5ccc(O)c4O[C@H]2[C@@H](O)C=C[C@H]3[C@H]1C5` the KD was 17.8 µM.
